According to patent US12485161B2, “Compositions comprising sulforaphane or a sulforaphane precursor and a milk thistle extract or powder” (Nutramax Laboratories, Inc., priority 2012, dated 2025):

Test system: broccoli sprout-derived myrosinase
Experiment: Consumption of glucoraphanin by myrosinase as a function of the ascorbic acid concentration (Example 3)
Format: biochemical
Conditions: 38° C.

SMILES: C[S+]([O-])CCCC/C(=N\OS(=O)(=O)O)S[C@@H]1O[C@H](CO)[C@@H](O)[C@H](O)[C@H]1O (stereo partly drawn) [GR, 1-S-[(1E)-5-(methylsulfinyl)-N-(sulfonatooxy)pentanimidoyl]-1-thio-β-D-glucopyranose]
- Glucoraphanin content (ascorbic acid 0 μM, time 0 min): 93.36 µmol
- Glucoraphanin content (ascorbic acid 0 μM, time 15 min): 92.24 µmol
- Glucoraphanin content (ascorbic acid 0 μM, time 30 min): 90.71 µmol
- Glucoraphanin content (ascorbic acid 0 μM, time 45 min): 89.44 µmol
- Glucoraphanin content (ascorbic acid 0 μM, time 60 min): 87.79 µmol
- Glucoraphanin content (ascorbic acid 50 μM, time 0 min): 93.36 µmol
- Glucoraphanin content (ascorbic acid 50 μM, time 15 min): 89.20 µmol
- Glucoraphanin content (ascorbic acid 50 μM, time 30 min): 84.24 µmol
- Glucoraphanin content (ascorbic acid 50 μM, time 45 min): 80.30 µmol
- Glucoraphanin content (ascorbic acid 50 μM, time 60 min): 76.36 µmol
- Glucoraphanin content (ascorbic acid 125 μM, time 0 min): 93.36 µmol
- Glucoraphanin content (ascorbic acid 125 μM, time 15 min): 84.52 µmol
- Glucoraphanin content (ascorbic acid 125 μM, time 30 min): 75.92 µmol
- Glucoraphanin content (ascorbic acid 125 μM, time 45 min): 68.09 µmol
- Glucoraphanin content (ascorbic acid 125 μM, time 60 min): 59.41 µmol
- Glucoraphanin content (ascorbic acid 250 μM Filtered, time 0 min): 93.36 µmol
- Glucoraphanin content (ascorbic acid 250 μM Filtered, time 15 min): 86.31 µmol
- Glucoraphanin content (ascorbic acid 250 μM Filtered, time 30 min): 79.44 µmol
- Glucoraphanin content (ascorbic acid 250 μM Filtered, time 45 min): 71.94 µmol
- Glucoraphanin content (ascorbic acid 250 μM Filtered, time 60 min): 65.18 µmol
- Glucoraphanin content (ascorbic acid 250 μM, time 0 min): 93.36 µmol
- Glucoraphanin content (ascorbic acid 250 μM, time 15 min): 80.95 µmol
- Glucoraphanin content (ascorbic acid 250 μM, time 30 min): 69.06 µmol
- Glucoraphanin content (ascorbic acid 250 μM, time 45 min): 57.63 µmol
- Glucoraphanin content (ascorbic acid 250 μM, time 60 min): 45.76 µmol
- Glucoraphanin content (ascorbic acid 400 μM, time 0 min): 93.36 µmol
- Glucoraphanin content (ascorbic acid 400 μM, time 15 min): 78.32 µmol
- Glucoraphanin content (ascorbic acid 400 μM, time 30 min): 62.78 µmol
- Glucoraphanin content (ascorbic acid 400 μM, time 45 min): 47.67 µmol
- Glucoraphanin content (ascorbic acid 400 μM, time 60 min): 33.15 µmol
- Glucoraphanin content (ascorbic acid 600 μM, time 0 min): 93.36 µmol
- Glucoraphanin content (ascorbic acid 600 μM, time 15 min): 75.02 µmol
- Glucoraphanin content (ascorbic acid 600 μM, time 30 min): 55.66 µmol
- Glucoraphanin content (ascorbic acid 600 μM, time 45 min): 37.50 µmol
- Glucoraphanin content (ascorbic acid 600 μM, time 60 min): 22.09 µmol
